Measurements published in patent US12264352B2 (Research Foundation of the City University of New York, priority 2016, dated 2025).
HELM strings list residues between dots; [ac] is acetyl, [am] amide, other brackets name non-standard units.

Assay: peptide synthesis
Conditions: whole synthesis, reversed-phase HPLC and mass spectrometry

PEPTIDE1{[Nap].F.F.[K(NBD)].[Yp]}$$$$V2.0
final HPLC purity: 99.9% | final purity (method not given): 75.6%
